In paper doi:10.1101/2023.07.20.548338:
These are yes or no findings as the source states them, for the method shown. In cells and extracts the contact can be indirect. Here binding means that the protein was enriched with, or labelled near, the bait; the list need not be complete.

Chains of the proteins cited; added tags and fusions are not shown. Residues count along the entry.
UniProt D3Z7P3, residues 55-674: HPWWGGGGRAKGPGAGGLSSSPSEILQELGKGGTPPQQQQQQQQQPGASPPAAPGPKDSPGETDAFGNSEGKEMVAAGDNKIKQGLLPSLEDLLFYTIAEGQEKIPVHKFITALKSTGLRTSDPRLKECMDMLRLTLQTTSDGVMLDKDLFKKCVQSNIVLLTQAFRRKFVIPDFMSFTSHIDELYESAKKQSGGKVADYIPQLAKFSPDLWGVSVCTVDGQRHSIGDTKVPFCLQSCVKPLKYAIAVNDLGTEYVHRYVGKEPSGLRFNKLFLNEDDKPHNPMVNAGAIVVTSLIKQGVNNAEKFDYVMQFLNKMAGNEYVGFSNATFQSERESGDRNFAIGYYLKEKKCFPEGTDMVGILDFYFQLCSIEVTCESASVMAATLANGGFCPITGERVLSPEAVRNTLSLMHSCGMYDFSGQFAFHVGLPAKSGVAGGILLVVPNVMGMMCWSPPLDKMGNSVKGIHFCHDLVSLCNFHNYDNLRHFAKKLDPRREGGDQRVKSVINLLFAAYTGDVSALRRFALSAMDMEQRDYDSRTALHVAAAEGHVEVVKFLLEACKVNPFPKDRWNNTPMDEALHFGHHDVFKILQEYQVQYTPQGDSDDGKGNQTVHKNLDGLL

Biological target: T1, PDZD8-APEX2, stably expressed in MEFs (not stated (T527 is the human residue number)) (UniProt Q8NEN9)
T1 sequence: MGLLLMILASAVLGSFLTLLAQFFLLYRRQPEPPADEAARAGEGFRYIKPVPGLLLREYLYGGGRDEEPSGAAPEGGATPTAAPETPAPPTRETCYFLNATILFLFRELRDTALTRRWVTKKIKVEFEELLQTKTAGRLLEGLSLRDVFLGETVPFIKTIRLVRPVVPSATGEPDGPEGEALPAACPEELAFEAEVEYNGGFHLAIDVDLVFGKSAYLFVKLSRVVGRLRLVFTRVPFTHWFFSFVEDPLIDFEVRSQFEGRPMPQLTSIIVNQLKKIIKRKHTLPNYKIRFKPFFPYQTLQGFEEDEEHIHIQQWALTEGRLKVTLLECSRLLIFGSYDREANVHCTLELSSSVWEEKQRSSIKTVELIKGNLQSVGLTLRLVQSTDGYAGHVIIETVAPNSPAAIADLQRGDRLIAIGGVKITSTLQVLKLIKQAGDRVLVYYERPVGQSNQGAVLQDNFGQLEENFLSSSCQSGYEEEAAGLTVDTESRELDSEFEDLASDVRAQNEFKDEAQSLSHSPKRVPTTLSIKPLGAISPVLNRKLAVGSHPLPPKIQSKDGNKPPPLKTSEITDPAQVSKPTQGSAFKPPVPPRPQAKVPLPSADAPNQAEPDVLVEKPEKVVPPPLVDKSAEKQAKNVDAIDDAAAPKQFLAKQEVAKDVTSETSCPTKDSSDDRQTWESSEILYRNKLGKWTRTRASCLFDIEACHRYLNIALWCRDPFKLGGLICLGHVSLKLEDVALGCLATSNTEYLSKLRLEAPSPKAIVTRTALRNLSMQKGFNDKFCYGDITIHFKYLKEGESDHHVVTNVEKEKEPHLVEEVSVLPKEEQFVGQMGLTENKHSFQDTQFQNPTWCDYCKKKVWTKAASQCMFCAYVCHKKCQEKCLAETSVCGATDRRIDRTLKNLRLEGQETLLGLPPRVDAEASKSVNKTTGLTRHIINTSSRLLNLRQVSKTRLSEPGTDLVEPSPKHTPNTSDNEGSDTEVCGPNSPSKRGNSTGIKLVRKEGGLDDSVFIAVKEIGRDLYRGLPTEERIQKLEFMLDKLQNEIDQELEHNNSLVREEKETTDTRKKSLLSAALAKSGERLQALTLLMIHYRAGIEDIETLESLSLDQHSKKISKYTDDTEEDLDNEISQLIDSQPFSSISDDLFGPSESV
Assay: proximity labelling

binding: binds
Substance: glutaminase 1 (GLS1; both KGA and GAC), endogenous in MEFs (from UniProt D3Z7P3 55-674)
